Data source: PubChem BioAssay AID1159584 (Peter MacCallum Cancer Centre, 2016)

- Screen: 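Knock-downs that harm CDH1-null cells more than parental MCF10A cells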 (primary screen)
- System: human MCF10A breast epithelial cells, parental and CDH1-null
- Knock-down reagent: siRNA against human genes
- Read-out: 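Cell viability by CellTiter-Glo ATP luminescence, each line scaled to the mean of mock wells across plates, then CDH1-null over parental ratio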
- Scale: CDH1-null / parental viability ratio: higher = CDH1-null cells survive relatively better than parental; CDH1-null viability vs mock: higher = more viable CDH1-null cells; parental viability vs mock: higher = more viable parental cells
Shown is one part, drawn at random, of about 18,000 reagents. Not given: the amount of reagent, the time to read-out.

gene knocked down,CDH1-null / parental viability ratio,CDH1-null viability vs mock (fraction of mock),parental viability vs mock (fraction of mock)
RAB5IF,1.43,0.66,0.46
HIPK2,1.02,1.21,1.19
MTNAP1,0.94,0.64,0.68
SLC14A2,1.3,1.18,0.91
MRPL43,1.15,0.82,0.71
PLSCR3,1.02,0.96,0.94
OR2K2,1.46,0.7,0.48
B4GALT2,0.85,0.64,0.75
GSTM1,0.85,0.6,0.71
P4HB,1.19,0.88,0.74
GSTO1,1.04,0.94,0.9
SACS,1.07,0.72,0.67
ZNF721,1.26,0.88,0.7
OR8D2,1.25,0.69,0.55
ALDH3A2,0.84,0.84,1
TTC38,1.01,0.83,0.82
ANP32B,1.11,1.02,0.92
XKRY,1.16,0.79,0.68
NDEL1,0.79,0.6,0.76
CEP290,0.91,0.88,0.97
ZNF320,1.13,0.86,0.76
MBD2,0.83,0.4,0.48
IBA57,1.02,0.62,0.61
OR6C70,0.75,0.66,0.88
MDK,0.94,0.72,0.77
NDUFB11,1.07,0.94,0.88
DDX25,1.02,0.58,0.57
HINFP,0.91,0.53,0.58
ZC3H14,0.98,0.86,0.88
GLT8D1,0.92,1.06,1.15
HSD17B8,0.93,0.8,0.86
SPATA32,0.9,0.66,0.73
MLH3,0.88,0.74,0.84
FXYD7,1.31,1.38,1.05
RNF170,0.93,0.86,0.92
SOCS5,0.84,0.62,0.74
MADD,0.92,1.1,1.19
KLRD1,0.98,0.55,0.56
CELA3A,1.25,0.86,0.69
SKOR1,1.04,0.94,0.9
CUTC,1.05,1.04,0.99
FCER1A,0.74,0.74,1
KRTAP1-1,0.93,0.56,0.6
TMEM134,1.02,0.94,0.92
CACNB4,1.19,1.02,0.86
MAML2,1.06,0.68,0.64
WFS1,1.1,0.88,0.8
ITGB4,0.83,0.71,0.86
PMFBP1,1.11,0.94,0.85
MBP,1.43,0.9,0.63
UBQLNL,0.91,0.78,0.86
SLF2,1.1,0.74,0.67
OR5H6,0.94,1.14,1.21
AP1S2,0.87,0.54,0.62
AMDHD2,1.01,0.73,0.72
CCL11,0.68,0.52,0.77
TMPRSS9,1.38,0.91,0.66
DUX5,1.11,0.62,0.56
POU3F3,1.15,1.02,0.89
SORCS3,0.78,0.72,0.92
STK24,1.08,1,0.93
FAM13B,1.07,0.94,0.88
EIF3G,1.3,0.6,0.46
H2BC1,0.66,0.57,0.87
FAM120A,0.76,0.58,0.76
ZNF16,1.63,0.49,0.3
HAPLN4,0.96,0.98,1.02
TMEM232,1.08,0.94,0.87

Reformatted: results already given.
TMPRSS9 → CDH1-null / parental viability ratio: 1.38; CDH1-null viability vs mock (fraction of mock): 0.91; parental viability vs mock (fraction of mock): 0.66
DUX5 → CDH1-null / parental viability ratio: 1.11; CDH1-null viability vs mock (fraction of mock): 0.62; parental viability vs mock (fraction of mock): 0.56
POU3F3 → CDH1-null / parental viability ratio: 1.15; CDH1-null viability vs mock (fraction of mock): 1.02; parental viability vs mock (fraction of mock): 0.89
SORCS3 → CDH1-null / parental viability ratio: 0.78; CDH1-null viability vs mock (fraction of mock): 0.72; parental viability vs mock (fraction of mock): 0.92
STK24 → CDH1-null / parental viability ratio: 1.08; CDH1-null viability vs mock (fraction of mock): 1; parental viability vs mock (fraction of mock): 0.93
FAM13B → CDH1-null / parental viability ratio: 1.07; CDH1-null viability vs mock (fraction of mock): 0.94; parental viability vs mock (fraction of mock): 0.88
EIF3G → CDH1-null / parental viability ratio: 1.3; CDH1-null viability vs mock (fraction of mock): 0.6; parental viability vs mock (fraction of mock): 0.46
H2BC1 → CDH1-null / parental viability ratio: 0.66; CDH1-null viability vs mock (fraction of mock): 0.57; parental viability vs mock (fraction of mock): 0.87
FAM120A → CDH1-null / parental viability ratio: 0.76; CDH1-null viability vs mock (fraction of mock): 0.58; parental viability vs mock (fraction of mock): 0.76
ZNF16 → CDH1-null / parental viability ratio: 1.63; CDH1-null viability vs mock (fraction of mock): 0.49; parental viability vs mock (fraction of mock): 0.3
HAPLN4 → CDH1-null / parental viability ratio: 0.96; CDH1-null viability vs mock (fraction of mock): 0.98; parental viability vs mock (fraction of mock): 1.02
